The source of these data is patent publication US6503749B2 (Aventis Pharma S.A., priority 1998, dated 2003).

One data set concerns TGY186/pTG10435. Kind of data set: Bioconversion of pregnenolone or progesterone by strain expressing bovine P45017α. It counts as cell-based, S. cerevisiae. As to conditions: 48 hours at 28° C.
In a further data set the test system is TGY158/pTG10862. Kind of data set: Bioconversion of pregnenolone by strain expressing human 3β-HSD. The data set is classed as cell-based, S. cerevisiae. As to conditions: Strain TGY15B, plasmid pTG10862, 100 μg/ml pregnenolone, 24 h at 28° C., 3 clones.

With `CC(=O)[C@@]1(O)CC[C@H]2[C@@H]3CC=C4C[C@@H](O)CC[C@]4(C)[C@H]3CC[C@@]21C` [17α-OH pregnenolone, 17α-hydroxypregnenolone], in the data set on TGY186/pTG10435 (Substrate: Pregnenolone), the “Steroid measured by RP-HPLC after growth and bioconversion” value (from here on “Steroid measured by RP-HPLC”) turned out to be 42.0 µg/mL.
For `CC(=O)[C@H]1CC[C@H]2[C@@H]3CC=C4C[C@@H](O)CC[C@]4(C)[C@H]3CC[C@]12C` [Pregnenolone], the figures for the “Steroid measured by RP-HPLC” value with TGY158/pTG10862, with TGY158/pTG10862 (listed as pregnenolone) and with TGY186/pTG10435 (Substrate: Pregnenolone) were 94 µg/mL, “recovered almost quantitatively” and 67.1 µg/mL, respectively.
As for `CC(=O)[C@H]1CC[C@H]2[C@@H]3CCC4=CC(=O)CC[C@]4(C)[C@H]3CC[C@]12C` [Progesterone], the “Steroid measured by RP-HPLC” value in the data set on TGY158/pTG10862 was 15.2 µg/mL; with TGY186/pTG10435 (Substrate: Progesterone), 41.4 µg/mL.
